Data reported in patent US20250304918A1.
Results are given in words; binding and its absence hold for the method and conditions named. Some entries that bind do so weakly or less than the wild type.

The chains behind the UniProt entries cited, without tags or fusion partners. Where a name states a change or a piece, a line headed by the entry shows the natural chain unless it says otherwise.
UniProt O70578: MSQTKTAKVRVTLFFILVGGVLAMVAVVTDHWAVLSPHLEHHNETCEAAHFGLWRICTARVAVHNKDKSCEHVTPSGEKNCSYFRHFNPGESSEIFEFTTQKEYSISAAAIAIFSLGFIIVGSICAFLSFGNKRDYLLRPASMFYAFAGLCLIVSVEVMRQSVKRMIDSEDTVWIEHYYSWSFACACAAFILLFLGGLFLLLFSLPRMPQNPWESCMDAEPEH
UniProt Q06432: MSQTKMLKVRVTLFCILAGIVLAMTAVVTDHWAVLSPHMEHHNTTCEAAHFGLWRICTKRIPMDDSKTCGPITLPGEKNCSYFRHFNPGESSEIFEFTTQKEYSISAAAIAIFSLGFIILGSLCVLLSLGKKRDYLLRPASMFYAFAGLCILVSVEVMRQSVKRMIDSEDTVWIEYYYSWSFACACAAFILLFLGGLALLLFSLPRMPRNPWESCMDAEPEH

Columns and labels:
mouse CACNG1 (mouse) [1] = target: mouse CACNG1 (mouse) (UniProt O70578); test: no binding assay described; definition of the label
[2] = target: human CACNG1 (Calcium Voltage-Gaged Auxiliary Subunit Gamma 1) (human) (UniProt Q06432); test: as above
mouse CACNG1 (mouse) [3] = target: mouse CACNG1 (mouse) (UniProt O70578); test: no binding assay described; descriptor in figure legend
[4] = target: human CACNG1 (Calcium Voltage-Gaged Auxiliary Subunit Gamma 1) (human) (UniProt Q06432); test: as above

Measured: binding

B1: CACNG1 mAb #4 (antibody, V domains shown)
VH: QVQLQESGPGLVKPSETLSLTCTVSGDSINNYYWTWLRQPPGKGLEWIGYIYYSGSANYNPSLKSRVTISVDTSKNQFSLKLNSVTAADTAVYYCARGAVKYFRHWGQGTLVTVSS
VL: EIVLTQSPGTLSLSPGERATLSCRASQTINHNNLAWYQQRPGQAPRLLIYGASNRATAIPDRFSGSGSGTDFTLTISRLEPEDFEVYSCQQYGSLPLTFGGGTKVEIK
binds: mouse CACNG1 (mouse) [1] | [2]

B2: CACNG1 mAb #2 (antibody, V domains shown)
VH: QVQLQQWGAGLLKPSATLSRTCAVYGGSFSGYYWNWIRQSPGKGLEWIGEILHSGRTNYNPSLKSRVTISVDTSKNQFSLKLTSVTAADTAVYYCAGRIAARHGWFDPWGQGTLVTVSS
VL: DIQMTQSPSSVSTSVGDRVTISCRASQDIRKWLAWYQQKPGKAPKLLIYATSSLQSGVPSRFSGSGSGTDFTLTISSLQPEDFATYFCQQANSFPFTFGQGTKLEIK
binds: all assays above
